Measurements from the supplement of paper PMC7125110.
± gives the standard error. Many of these values have a large error.

B1: glmS ribozyme (parent)
chain: AUAAAAGCGCCAGAACUACAGAAAUGUAGUUGACGAGGAGGAGGUUUAUCGAAUUUUCGGCGGAUGCCUCCAAA

Variants of: B1
Experiment: KM; higher = weaker cofactor use; RNA array
Conditions: with glucosamine-6-phosphate
In short: (§1)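 Glucosamine-6-phosphate (40 μM to 10 mM) in HEPES/KCl/Mg(OAc)2 buffer was flowed over sequenced MiSeq chips, and tiles were imaged over ~14 h. Barcoded ribozyme variants there had been transcribed in situ by E. coli RNA polymerase and were tracked through a hybridised Cy3 probe at 37 °C. One- or two-exponential decay fits to per-tile medians, normalised to baseline and to non-cleaving reference variants, gave kobs. kcat and KM came from weighted Michaelis–Menten fits across concentrations.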

**Q.** How did the KM turn out when AUAAAAGCGCCAGUACUACAGAAAUGUAGUUGACGAGGAGUAGGUUUAUCGAAUUUUCGGCGGAUGCCUCCAAA was run?
**A.** Its KM is 1010 ± 220 µM.

**Q.** Which KM does the source give for AUAAAAGCGCCAGUACUACAGAAAUGUAGUUGACGAGGAGGAAGUUUAUCGAAUUUUCGGCGGAUGCCUCCAAA here?
**A.** The KM was 26700 ± 16000 µM.

**Q.** For AUAAAAGCGCCAGUACUACAGAAAUGUAGUUGACGAGGAGGAGGUUUAUCGAAUUUUCGGCGCAUGCCUCCAAA, which KM is on record?
**A.** Its KM is 138 ± 100 µM.

**Q.** How did the KM turn out when AUAAAAGCGCCAGUACUACAGAAAUGUAGAUGACGAGGAGGAGGUUUAUCGAAUUUUCGGCGGAUGCCUCCAAA was run?
**A.** Its KM is 2250 ± 960 µM.

**Q.** For AUAAAAGCGCCAGUACUACAGAAAUGUAGUUGACGAGGAGGAGGUGUAUCGAAUUUUCGGCGGAUGCCUCCAAA, which KM is on record?
**A.** The KM was 2150 ± 380 µM.

**Q.** AUAAAAGCGCCAGUACUACAGAAAUGUAGUUGACGAGGAGGAGGUUCAUCGAAUUUUCGGCGGAUGCCUCCAAA was tested. Which KM did it give?
**A.** Its KM is 1430 ± 360 µM.

**Q.** For AUAAAAGCGCCAGUACUACAGAAAUGUAGUUGACGAGGAGGAGGUUUAUCGAACUUUCGGCGGAUGCCUCCAAA, which KM is on record?
**A.** The KM was 1830 ± 830 µM.

**Q.** For AUAAAAGCGCCAGUACUACAGAAAUGUAGUUGACGAGGAGGAGGUUUAUCGAAGUUUCGGCGGAUGCCUCCAAA, which KM is on record?
**A.** Its KM is 2950 ± 1500 µM.

**Q.** Which KM does the source give for AUAAAAGCGCCAGUACUACAGAAAUGUAGUUGACGAGGAGGAGGUUUAUCGAAUGUUCGGCGGAUGCCUCCAAA here?
**A.** The KM was 2280 ± 1100 µM.

**Q.** How did the KM turn out when AUAAAAGCGCCAGACCUACAGAAAUGUAGUUGACGAGGAGGAGGUUUAUAGAAUUUUCGGCGGAUGCCUCCAAA was run?
**A.** The KM was 58.3 ± 56 µM.

**Q.** For AUAAAAGCGCCAGACCUACAGAAAUGUAGUUGACGAGGAGGAGGUUUAUUGAAUUUUCGGCGGAUGCCUCCAAA, which KM is on record?
**A.** The KM was 42.3 ± 32 µM.

**Q.** With AUAAAAGCGCCAGACCUACAGAAAUGUAGUUGACGAGGAGGAGGUUUAUCGAAUUUUGGGCGGAUGCCUCCAAA as the variant, how does the KM read?
**A.** Its KM is 2000 ± 1000 µM.

**Q.** With AUAAAAGCGCCAGACCUACAGAAAUGUAGUUGACGAGGAGGAGGUUUAUCGAAUUUUCGGCGGAUGUCUCCAAA as the variant, how does the KM read?
**A.** The KM was 881 ± 330 µM.

**Q.** Which KM does the source give for AUAAAAGCGCCAGACCUACAGAAAUGUAGUUGACGAGGAGGAGGUUUAUCGAAUUUUCGGCGGAUGCCUUCAAA here?
**A.** Its KM is 162 ± 130 µM.

**Q.** For AUAAAAGCGCCAGACCUACAGAAAUGUAGUUAACGAGGAGGAGGUUUAUCGAAUAUUCGGCGGAUGCCUCCAAA, which KM is on record?
**A.** The KM was 5560 ± 3900 µM.

**Q.** With AUAAAAGCGCCAGACCUACAGAAAUGUAGUUCACGAGGAGGAGGUUUAUCGAAUUUUCGGCGGAUGCCUCCAAA as the variant, how does the KM read?
**A.** The KM was 3300 ± 240 µM.

**Q.** Which KM does the source give for AUAAAAGCGCCAGACCUACAGAAAUGUAGUUGACGAGGAAGAGGUUUAUCGAAUUUUCGGCGGAUGCCUCCAAA here?
**A.** Its KM is 1860 ± 840 µM.

**Q.** With AUAAAAGCGCCAGACCUACAGAAAUGUAGUUGACGAGGACGAGGUUUAUCGAAUUUUCGGCGGAUGCCUCCAAA as the variant, how does the KM read?
**A.** Its KM is 1230 ± 420 µM.

**Q.** With AUAAAAGCGCCAGACCUACAGAAAUGUAGAUGACGAGGAGGAGGUUUUUCGAAUUUUCGGCGGAUGCCUCCAAA as the variant, how does the KM read?
**A.** The KM was 2170 ± 1200 µM.

**Q.** AUAAAAGCGCCAGACCUACAGAAAUGUAGCUGACGAGGAGGAGGUUUAUCGAAUUUUCGGCGGAUGCCUCCAAA was tested. Which KM did it give?
**A.** Its KM is 3040 ± 2500 µM.

**Q.** With AUAAAAGCGCCAGACCUACAGAAAUGUAGUAGACGAGGAGGAGGUUUAUCGAAUUUUCGGCGGAUGCCUCCAAA as the variant, how does the KM read?
**A.** The KM was 1860 ± 480 µM.

**Q.** With AUAAAAGCGCCAGACCUACAGAAAUGUAGUGGACGAGGAGGAGGUUUAUCGAAUUUUCGGCGGAUGCCUCCAAA as the variant, how does the KM read?
**A.** The KM was 3460 ± 1800 µM.

**Q.** How did the KM turn out when AUAAAAGCGCCAGACCUACAGAAAUGUAGUUGACGAGGAGGAGGUAUAUCGAAUUUUCGGCGGAUGCCUCCAAA was run?
**A.** Its KM is 1940 ± 1700 µM.

**Q.** With AUAAAAGCGCCAGACCUACAGAAAUGUAGUUGACGAGGAGGAGGUUAAUCGAAUUUUCGGCGGAUGCCUCCAAA as the variant, how does the KM read?
**A.** The KM was 2080 ± 870 µM.

**Q.** Which KM does the source give for AUAAAAGCGCCAGACCUACAGAAAUGUAGUUGACGAGGAGGAGGUUUAGCGAAUUUUCGGCGGAUGCCUCCAAA here?
**A.** Its KM is 1520 ± 550 µM.

**Q.** For AUAAAAGCGCCAGACCUACAGAAAUGUAGUUGACGAGGAGGAGGUUUAUCGAAAUUUCGGCGGAUGCCUCCAAA, which KM is on record?
**A.** The KM was 1930 ± 730 µM.

**Q.** How did the KM turn out when AUAAAAGCGCCAGACCUACAGAAAUGUAGUUGACGAGGAGGAGGUUUAUCGAAUGUUCGGCGGAUGCCUCCAAA was run?
**A.** Its KM is 969 ± 700 µM.

**Q.** For AUAAAAGCGCCAGAGGUACAGAAAUGUAGUUGACGAGGAGGAGGUUUAUCGAAUUUUCGGCGGAUGCCUCCAAA, which KM is on record?
**A.** Its KM is 2660 ± 820 µM.

**Q.** With AUAAAAGCGCCAGAGCUACAGAAAUGUAGUUGACGAGGAGGAGGUUUAUCGAAUUUUUGGCGGAUGCCUCCAAA as the variant, how does the KM read?
**A.** Its KM is 13200 ± 5300 µM.

**Q.** How did the KM turn out when AUAAAAGCGCCAGAGCUACAGAAAUGUAGUUGACGAGGAGGAGGUUUAUCGAAUUUUCGGCGGAUGACUCCAAA was run?
**A.** Its KM is 785 ± 430 µM.

**Q.** Which KM does the source give for AUAAAAGCGCCAGAGCUACAGAAAUGUAGUUGACGAGGAGGAGGUUUAUCGAAUUUUCGGCGGAUGCCUUCAAA here?
**A.** Its KM is 169 ± 140 µM.

**Q.** Which KM does the source give for AUAAAAGCGCCAGAGCUACAGAAAUGUACUUGACGAGGAGGAGGUUUAUCGAAUUUUCGGCGGAUGCCUCCAAA here?
**A.** Its KM is 3540 ± 1400 µM.

**Q.** Which KM does the source give for AUAAAAGCGCCAGAGCUACAGAAAUGUAUUUGACGAGGAGGAGGUUUAUCGAAUUUUCGGCGGAUGCCUCCAAA here?
**A.** The KM was 2350 ± 1500 µM.

**Q.** For AUAAAAGCGCCAGAGCUACAGAAAUGUAGUUGACGAUGAGGAGGUUUAUCGAAUUUUCGGCGGAUGCCUCCAAA, which KM is on record?
**A.** The KM was 623 ± 300 µM.

Variants of: B1
Experiment: self-cleavage kobs at 40 uM GlcN6P; higher = faster cleavage; RNA array
Conditions: with glucosamine-6-phosphate
In short: as §1

**Q.** AUAAAAGCGCCAGUACUACAGAAAUGUAGUUGACGAGGAGUAGGUUUAUCGAAUUUUCGGCGGAUGCCUCCAAA was tested. Which “self-cleavage kobs at 40 uM GlcN6P” value did it give?
**A.** Its value is 1.4e-05 ± 8.4e-06 s⁻¹.

**Q.** How did the “self-cleavage kobs at 40 uM GlcN6P” value turn out when AUAAAAGCGCCAGACCUACAGAAAUGUAGUUGACGAGGACGAGGUUUAUCGAAUUUUCGGCGGAUGCCUCCAAA was run?
**A.** The value was 2.02e-05 ± 1.1e-05 s⁻¹.

Variants of: B1
Experiment: self-cleavage kobs at 160 uM GlcN6P; higher = faster cleavage; RNA array
Conditions: with glucosamine-6-phosphate
In short: as §1

**Q.** Which “self-cleavage kobs at 160 uM GlcN6P” value does the source give for AUAAAAGCGCCAGACCUACAGAAAUGUAGUUGACGAGGAGGAGGUAUAUCGAAUUUUCGGCGGAUGCCUCCAAA here?
**A.** Its value is 3.64e-05 ± 2.2e-05 s⁻¹.

Variants of: B1
Experiment: self-cleavage kobs at 640 uM GlcN6P; higher = faster cleavage; RNA array
Conditions: with glucosamine-6-phosphate
In short: as §1

**Q.** How did the “self-cleavage kobs at 640 uM GlcN6P” value turn out when AUAAAAGCGCCAGACCUACAGAAAUGUAGUUGACGAGGAGGAGGUUUAGCGAAUUUUCGGCGGAUGCCUCCAAA was run?
**A.** The value was 2.77e-05 ± 1.8e-05 s⁻¹.
